# Data from PubChem BioAssay (EPA / NIEHS).
# Amino acid sequences for entries named in this document (tags omitted).
# UniProt P33261, whole entry, looked up: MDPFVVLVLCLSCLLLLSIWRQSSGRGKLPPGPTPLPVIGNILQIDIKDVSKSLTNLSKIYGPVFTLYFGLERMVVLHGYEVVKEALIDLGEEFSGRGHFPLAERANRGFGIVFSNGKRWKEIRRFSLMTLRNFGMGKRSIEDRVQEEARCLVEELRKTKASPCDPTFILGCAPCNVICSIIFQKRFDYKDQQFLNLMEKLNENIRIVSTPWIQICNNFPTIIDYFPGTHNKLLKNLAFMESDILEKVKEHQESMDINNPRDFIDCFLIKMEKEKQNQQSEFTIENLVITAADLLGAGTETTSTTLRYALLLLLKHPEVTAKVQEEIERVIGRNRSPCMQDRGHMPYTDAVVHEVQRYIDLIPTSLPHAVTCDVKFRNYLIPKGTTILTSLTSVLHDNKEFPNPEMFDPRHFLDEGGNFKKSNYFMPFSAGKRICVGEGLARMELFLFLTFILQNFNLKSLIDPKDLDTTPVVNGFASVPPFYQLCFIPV
# UniProt P08684, whole entry, looked up: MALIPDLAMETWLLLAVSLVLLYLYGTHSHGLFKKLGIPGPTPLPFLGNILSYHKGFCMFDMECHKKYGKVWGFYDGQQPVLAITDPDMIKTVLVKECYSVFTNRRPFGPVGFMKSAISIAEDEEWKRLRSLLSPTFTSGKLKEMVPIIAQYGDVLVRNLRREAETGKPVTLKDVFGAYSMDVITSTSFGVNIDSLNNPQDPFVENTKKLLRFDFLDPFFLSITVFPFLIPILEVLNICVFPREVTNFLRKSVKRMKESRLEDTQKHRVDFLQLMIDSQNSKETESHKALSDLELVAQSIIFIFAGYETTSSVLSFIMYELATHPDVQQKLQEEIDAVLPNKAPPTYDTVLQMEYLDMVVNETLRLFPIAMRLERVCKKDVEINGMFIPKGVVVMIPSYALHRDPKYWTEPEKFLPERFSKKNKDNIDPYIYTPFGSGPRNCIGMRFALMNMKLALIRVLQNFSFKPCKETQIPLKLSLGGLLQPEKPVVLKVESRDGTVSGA
# Inconclusive results, whose numbers are uncertain, are shown with a selection of clear calls. For some of these results: Where the call is inconclusive, the potency comes from a doubtful curve fit. The source made the active and inactive calls. Rule for the calls: active = hit-call score of the fitted dose curve at least 0.9, where 1 is the maximum; inconclusive = response in the unintended direction; inactive = score below 0.9.
# What was measured:
# [1] = ArunA_CellTiter_hNC: Viability Assessment in the ArunA Biomedical's Oris Neural Crest (hNC) Cell Migration Assay (AID 2283752)
# In short: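 hNC cells (H9 ESC-derived), 60,000/well, Matrigel, LIF + bFGF medium; 16 h 37C attachment; 72 h compound in test medium; CellTiter Aqueous One read-out; loss-of-signal vs DMSO baseline.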
# [2] = ArunA_CellTiter_hNP: Viability Assessment in the ArunA Biomedical's Oris Neural Crest (hNC) Cell Migration Assay (AID 2283753)
# In short: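 Viability read with CellTiter 96 Aqueous One after 72 h chemical exposure of human hNP1 neuroprogenitors, which were plated on Matrigel in LIF/bFGF medium 16 h beforehand. Endpoint fitted in positive direction relative to DMSO.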
# [3] = ArunA_NOG_NeuriteLength: ArunA Biomedical's Neurite Outgrowth (NOG) Assay for Neurite Length (AID 2283757)
# In short: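 Total neurite length per neuron, from traced βIII-tubulin-labelled processes longer than 10 um on viable Hoechst-gated cells, was scored as decrease from DMSO. Cells were hESC (H9)-derived neurons given 48 h chemical exposure immediately after seeding.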
# [4] = ArunA_NOG_BranchPointsPerNeurite: ArunA Biomedical's Neurite Outgrowth (NOG) Assay for Branch Points Per Neurite (AID 2283759)
# In short: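 Automated image analysis traced neurites (processes >10 um) from valid cell bodies after Hoechst and βIII-tubulin staining. hNN cells from H9 embryonic stem cells, 48 h exposure. Fitted bidirectionally against DMSO.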
# [5] = read-out: sulfotransferase (SULT2A), SULT2A1 (gene 6822); test: CLD_SULT2A_24hr: CellzDirect (CLD) Gene Expression Assay for sulfotransferase (SULT2A) at 24 hours (AID 2283694);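 for AC50: potency for increased SULT2A1 mRNA level as induction over DMSO baseline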
# In short: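 mRNA is measured by qNPA: probe hybridisation, S1 nuclease digestion, chemiluminescence, in lysates from human primary hepatocytes harvested 24 h after daily dosing. Vehicle was 0.2% DMSO. Phase-contrast microscopy flagged cytotoxicity (yes/no).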
# [6] = read-out: Cytochrome P450 2C19 (Homo sapiens) (UniProt P33261); test: CLD_CYP2C19_48hr: CellzDirect (CLD) Gene Expression Assay for xenobiotic metabolism (CYP2C19) at 48 hours (AID 2283700);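 for outcome: fitted upward so actives raise CYP2C19 mRNA above the 0.2% DMSO vehicle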
# In short: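 CYP2C19 mRNA induction read by chemiluminescent quantitative nuclease protection assay after 48 h, with fresh compound added daily for two days to cultured human liver hepatocytes. Activity fitted upward against 0.2% DMSO vehicle.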
# [7] = read-out: xenobiotic metabolism (CYP1A2), CYP1A2 (gene 1544); test: CLD_CYP1A2_48hr: CellzDirect (CLD) Gene Expression Assay for xenobiotic metabolism (CYP1A2) at 48 hours (AID 2283703)
# In short: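 Cytotoxicity was flagged yes/no from morphology, while CYP1A2 transcript induction was detected by qNPA chemiluminescence after a 48-hour exposure. Human primary hepatocyte cultures from separate donors received fresh dosing solutions daily over two days, with 0.2% DMSO as vehicle and baseline.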
# [8] = read-out: alkyl and aryl transferase (GSTA2), GSTA2 (gene 2939); test: CLD_GSTA2_48hr: CellzDirect (CLD) Gene Expression Assay for alkyl and aryl transferase (GSTA2) at 48 hours (AID 2283708);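 note: active means mRNA induction above DMSO vehicle baseline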
# In short: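 GSTA2 mRNA quantified by qNPA chemiluminescence in human primary hepatocyte lysates after 48 h of daily fresh chemical dosing. Increases fitted against 0.2% DMSO vehicle baseline; cytotoxicity from morphology annotated yes/no.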
# [9] = read-out: sulfotransferase (SULT2A), SULT2A1 (gene 6822); test: CLD_SULT2A_48hr: CellzDirect (CLD) Gene Expression Assay for sulfotransferase (SULT2A) at 48 hours (AID 2283710);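 note: hits raise SULT2A1 transcript above the 0.2% DMSO vehicle baseline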
# In short: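 SULT2A1 transcript measured by qNPA chemiluminescence in human primary hepatocyte cultures after 48 h, with fresh dosing solutions on two consecutive days; gain-of-signal fitting against 0.2% DMSO vehicle; cytotoxicity annotated from phase-contrast morphology.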
# [10] = read-out: ABC Transporter (ABCB1), ABCB1 (gene 5243); test: CLD_ABCB1_48hr: CellzDirect (CLD) Gene Expression Assay for ABC Transporter (ABCB1) at 48 hours (AID 2283695);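 for AC50: potency for induction meaning increase of mRNA over DMSO vehicle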
# In short: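 ABCB1 mRNA was measured by quantitative nuclease protection assay (chemiluminescence) 48 h after dosing. Human hepatocyte cultures from two separate donors received fresh dosing solutions daily for two days, with 0.2% DMSO as vehicle. Positive-direction fit against DMSO.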
# [11] = CLD_ACTIN_48hr: CellzDirect (CLD) Gene Expression Assay for Baseline Control (Actin) at 48 hours (AID 2283702)
# In short: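 Background-control actin mRNA read by qNPA chemiluminescence at 48 h. Human hepatocyte cultures from two donors received fresh multi-concentration chemical doses daily for two days; 0.2% DMSO served as vehicle baseline.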
# [12] = read-out: glucuronosyltransferase (UGT1A1), UGT1A1 (gene 54658); test: CLD_UGT1A1_48hr: CellzDirect (CLD) Gene Expression Assay for glucuronosyltransferase (UGT1A1) at 48 hours (AID 2283709);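 note: actives increase expression relative to DMSO so potency refers to induction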
# In short: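 Quantitative nuclease protection assay (chemiluminescent) for UGT1A1 mRNA at 48 h in human hepatocyte cultures from two donors, redosed daily with fresh solutions. Induction fitted relative to 0.2% DMSO; phase-contrast morphology annotated cytotoxicity.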
# [13] = Tanguay_ZF_120hpf_ActivityScore_legacy: (Legacy) Oregon State University Tanguay Lab 120 Hour Post-fertilization zebrafish Assay Score for Activity (AID 2283742);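 note: dechorionated Tropical 5D wild-type zebrafish embryos held singly per well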
# In short: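 Dechorionated 5D embryos, one per well, static exposure 6–120 hpf, 28C, sealed and dark; final DMSO 0.64% (vol/vol). Brightfield binary scoring of mortality plus 18 endpoints; gain-of-signal fit versus DMSO baseline.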
# [14] = read-out: Cytochrome P450 3A4 (Homo sapiens) (UniProt P08684); test: CLD_CYP3A4_48hr: CellzDirect (CLD) Gene Expression Assay for xenobiotic metabolism (CYP3A4) at 48 hours (AID 2283698)
# In short: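 CYP3A4 induction read by qNPA chemiluminescence after 48 h, with fresh dosing solutions on consecutive days, in cultured human hepatocytes (two donors). Vehicle 0.2% DMSO as baseline; microscopy-based cytotoxicity annotated yes/no alongside data.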
# [15] = read-out: xenobiotic metabolism (CYP1A1), CYP1A1 (gene 1543); test: CLD_CYP1A1_48hr: CellzDirect (CLD) Gene Expression Assay for xenobiotic metabolism (CYP1A1) at 48 hours (AID 2283705)
# In short: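 CYP1A1 transcript measured by quantitative nuclease protection (chemiluminescent) 48 h after two daily treatments of human hepatocyte cultures, versus 0.2% DMSO. Morphology-based cytotoxicity flags accompany data; two donor preparations used.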
# [16] = ArunA_NOG_NucleusCount: ArunA Biomedical's Neurite Outgrowth (NOG) Assay for Nucleus Count (AID 2283756)
# In short: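 Viable neuron count, from Hoechst nuclei passing size and intensity gates, imaged at 20x on differentiated H9-derived human neurons. Exposure lasted 48 h from seeding; activity was scored relative to DMSO.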
# [17] = read-out: glucuronosyltransferase (UGT1A1), UGT1A1 (gene 54658); test: CLD_UGT1A1_24hr: CellzDirect (CLD) Gene Expression Assay for glucuronosyltransferase (UGT1A1) at 24 hours (AID 2283696)
# In short: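 UGT1A1 transcript induction was measured by quantitative nuclease protection assay (chemiluminescence) in human hepatocyte cultures 24 h after daily fresh dosing, with 0.2% DMSO as vehicle and baseline.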
# [18] = ArunA_Migration_hNP: ArunA Biomedical's Oris Neuroprogenitor (hNP) Cell Migration Assay (AID 2283754)
# In short: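 Readout is calcein-AM fluorescence (ex494/em517) of cells migrating into the detection zone, relative to DMSO. hNP1 cells (H9-derived) grown on Matrigel behind stoppers 16 h, then stoppers pulled and chemical applied 72 h; cytochalasin D as control.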
compound,measurement,setting,value
CCCc1cc(=O)[nH]c(=S)[nH]1,AC50,[1],inconclusive: 13.1 µM
same,AC50,[2],inconclusive: 227 nM
same,outcome,[3],inactive
same,outcome,[4],inactive
CCOC(=O)COc1cc(-n2ncc(C(F)(F)F)c(C)c2=O)c(F)cc1Cl,AC50,[5],inconclusive: 1.88 µM
same,AC50,[6],inconclusive: 20 µM
same,outcome,[7],inactive
same,outcome,[8],inactive
same,outcome,[9],inactive
CC1(C)C(C=C(Cl)Cl)C1C(=O)OCc1cccc(Oc2ccccc2)c1 (stereo unspecified),AC50,[5],inconclusive: 0.000403 µM
same,outcome,[10],inactive
same,outcome,[6],inactive
same,outcome,[11],inactive
same,AC50,[12],active: 3.97 µM
same,AC50,[13],inconclusive: 195 µM
COc1nc(C)nc(NC(=O)NS(=O)(=O)c2ccccc2OCCCl)n1,AC50,[5],inconclusive: 20 µM
same,AC50,[10],inconclusive: 0.443 µM
same,AC50,[14],inconclusive: 0.0878 µM
same,outcome,[6],inactive
same,AC50,[11],inconclusive: 20 µM
same,AC50,[7],inconclusive: 64 nM
same,AC50,[15],inconclusive: 0.15 µM
same,AC50,[9],inconclusive: 262 nM
Oc1ccc2ccccc2c1N=Nc1ccccc1,AC50,[2],inconclusive: 314 nM
same,AC50,[16],inconclusive: 120 nM
same,AC50,[3],inconclusive: 9.92 µM
CCCCCOC(=O)COc1cc(N2C(=O)C3=C(CCCC3)C2=O)c(F)cc1Cl,AC50,[6],inconclusive: 20 µM
same,outcome,[12],inactive
same,AC50,[9],inconclusive: 0.4 nM
N#CSCSc1nc2ccccc2s1,AC50,[14],inconclusive: 20 µM
same,AC50,[6],inconclusive: 33.4 µM
same,AC50,[7],active: 2820 nM
same,AC50,[15],active: 7.52 µM
same,AC50,[12],inconclusive: 20 µM
same,AC50,[9],inconclusive: 36100 nM
O=c1c(O)c(-c2ccc(O)c(O)c2)oc2cc(O)cc(O)c12,AC50,[2],active: 3880 nM
same,AC50,[4],active: 8.06 µM
COCCO,outcome,[5],inactive
same,AC50,[17],inconclusive: 20 µM
same,AC50,[6],inconclusive: 20 µM
CCCCCCC(CCCCCCCCCCC(=O)OCC(COC(C)=O)OC(C)=O)OC(C)=O (stereo unspecified),AC50,[13],inconclusive: 101 µM
Cc1nn(C)c(Oc2ccccc2)c1C=NOCc1ccc(C(=O)OC(C)(C)C)cc1,AC50,[6],inconclusive: 2 µM
same,outcome,[11],inactive
same,AC50,[7],inconclusive: 1.48 nM
same,AC50,[12],inconclusive: 2 µM
CC(C)CCCCCCc1ccc(O)cc1,AC50,[16],inconclusive: 120 nM
same,AC50,[3],inconclusive: 0.12 µM
CC(C)(c1ccc(O)cc1)c1ccc(O)cc1,AC50,[10],inconclusive: 20 µM
same,outcome,[17],inactive
same,AC50,[6],inconclusive: 20 µM
same,outcome,[11],inactive
same,AC50,[7],inconclusive: 20000 nM
same,AC50,[3],inconclusive: 5 µM
same,AC50,[4],inconclusive: 5 µM
O=P(OC(CCl)CCl)(OC(CCl)CCl)OC(CCl)CCl,outcome,[2],inactive
same,outcome,[18],inactive
same,outcome,[3],inactive
same,outcome,[4],inactive
O=C(Nc1ccc(Cl)cc1)Nc1ccc(Cl)c(Cl)c1,AC50,[2],active: 25900 nM
same,AC50,[3],inconclusive: 9.92 µM
same,outcome,[4],inactive

# 4 entries from above, bar-delimited.
compound | measurement | setting | value
CC(C)CCCCCCc1ccc(O)cc1 | AC50 | [3] | inconclusive: 0.12 µM
CC(C)(c1ccc(O)cc1)c1ccc(O)cc1 | AC50 | [10] | inconclusive: 20 µM
same | outcome | [17] | inactive
same | AC50 | [6] | inconclusive: 20 µM
